Experimental data: publication doi:10.1101/2021.07.30.454416
These are yes or no findings as the source states them, for the method shown. In cells and extracts the contact can be indirect. Some entries that bind do so weakly or less than the wild type.

The chains behind the UniProt entries cited, without tags or fusion partners.
UniProt P26527: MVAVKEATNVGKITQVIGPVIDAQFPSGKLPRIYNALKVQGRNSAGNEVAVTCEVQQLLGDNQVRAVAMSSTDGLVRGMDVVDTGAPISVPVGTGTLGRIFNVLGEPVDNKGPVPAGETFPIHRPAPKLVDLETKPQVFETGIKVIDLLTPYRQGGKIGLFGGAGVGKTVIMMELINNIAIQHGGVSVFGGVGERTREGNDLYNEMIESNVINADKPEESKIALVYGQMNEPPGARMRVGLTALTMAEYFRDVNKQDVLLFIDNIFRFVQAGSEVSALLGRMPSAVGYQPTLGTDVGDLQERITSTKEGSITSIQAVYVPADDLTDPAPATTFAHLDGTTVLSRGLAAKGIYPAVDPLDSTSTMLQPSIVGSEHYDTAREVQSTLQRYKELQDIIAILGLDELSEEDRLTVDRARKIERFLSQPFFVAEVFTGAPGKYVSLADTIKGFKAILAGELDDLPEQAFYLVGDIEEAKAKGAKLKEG

Molecular target: AtpB-3xFLAG (Synechocystis sp. PCC 6803) (UniProt P26527)
Test: co-IP

binding: binds
Substance: AtpB (subunit beta of ATP synthase) (from UniProt P26527 1-483)
